No constants are given. Whether binding was seen depends on the method and setting. Binding seen in cells or lysates may run through a third protein. Some binding calls cover weakened binding; strength is not graded here.
Target: eEF1BδL WT-green fluorescent protein (GFP) (UniProt P29692)
Test: co-IP; cell extract in NP lysis buffer incubated with anti-GFP antibody overnight at 4°C, Protein A or G Sepharose; eEF1BδL-GFP precipitated, Nrf2 detected by Western blot

Sequences of proteins named here, by UniProt entry; tags and fusion partners are left off. A change or cut given only in a name is not applied to a line headed by its entry. A line that says so, or that is headed by a name, gives the form on record, which may keep a tag or linker.
eEF1BδL WT-green fluorescent protein (GFP) (P29692, form named): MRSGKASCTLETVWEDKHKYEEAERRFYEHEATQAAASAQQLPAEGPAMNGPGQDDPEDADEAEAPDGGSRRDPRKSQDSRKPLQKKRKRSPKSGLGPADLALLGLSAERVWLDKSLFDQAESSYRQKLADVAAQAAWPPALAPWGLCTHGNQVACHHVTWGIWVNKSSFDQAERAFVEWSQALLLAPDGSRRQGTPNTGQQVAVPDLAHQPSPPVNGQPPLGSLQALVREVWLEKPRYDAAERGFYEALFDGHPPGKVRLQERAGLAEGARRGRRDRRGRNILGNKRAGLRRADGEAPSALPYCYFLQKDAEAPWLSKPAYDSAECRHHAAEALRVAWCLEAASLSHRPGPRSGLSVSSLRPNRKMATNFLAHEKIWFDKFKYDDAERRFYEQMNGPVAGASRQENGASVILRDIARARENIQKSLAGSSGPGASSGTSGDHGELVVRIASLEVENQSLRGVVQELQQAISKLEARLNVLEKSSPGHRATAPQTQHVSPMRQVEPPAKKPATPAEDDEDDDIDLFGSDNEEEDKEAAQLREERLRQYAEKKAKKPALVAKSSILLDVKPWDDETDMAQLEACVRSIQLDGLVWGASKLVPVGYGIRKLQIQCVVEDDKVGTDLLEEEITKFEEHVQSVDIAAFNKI

B1: Nrf2 (protein, UniProt Q16236 1-605)
chain: MMDLELPPPGLPSQQDMDLIDILWRQDIDLGVSREVFDFSQRRKEYELEKQKKLEKERQEQLQKEQEKAFFAQLQLDEETGEFLPIQPAQHIQSETSGSANYSQVAHIPKSDALYFDDCMQLLAQTFPFVDDNEVSSATFQSLVPDIPGHIESPVFIATNQAQSPETSVAQVAPVDLDGMQQDIEQVWEELLSIPELQCLNIENDKLVETTMVPSPEAKLTEVDNYHFYSSIPSMEKEVGNCSPHFLNAFEDSFSSILSTEDPNQLTVNSLNSDATVNTDFGDEFYSAFIAEPSISNSMPSPATLSHSLSELLNGPIDVSDLSLCKAFNQNHPESTAEFNDSDSGISLNTSPSVASPEHSVESSSYGDTLLGLSDSEVEELDSAPGSVKQNGPKTPVHSSGDMVQPLSPSQGQSTHVHDAQCENTPEKELPVSPGHRKTPFTKDKHSSRLEAHLTRDELRAKALHIPFPVEKIINLPVVDFNEMMSKEQFNEAQLALIRDIRRRGKNKVAAQNCRKRKLENIVELEQDLDHLKDEKEKLLKEKGENDKSLHLLKKQLSTLYLEVFSMLRDEDGKPYSPSEYSLQQTRDGNVFLVPKSKKPDVKKN
B1 was tested, and the binding was “binds”.

Reference: PMC7841112
